This experiment deals with native collagen type-IV. Briefly: solid phase ELISA, labeled CLK-peptide on coated plates; FIG. 15. (In general: ELISA stands for enzyme-linked immunosorbent assay.)

Results are given in words; binding and its absence hold for the method and conditions named.

The values that follow come from patent US20070259817A1.

On to CLKQNGGNFSLG (HRP label (site of attachment not stated)) [HRP-labeled CLK-Peptide], for which the binding entry is given as “no binding”.
